# Measurements from the supplement of paper PMC10849652.
# Amino acid sequences for entries named in this document (tags omitted). A change or cut given only in a name is not applied to a line headed by its entry.
# UniProt Q01813: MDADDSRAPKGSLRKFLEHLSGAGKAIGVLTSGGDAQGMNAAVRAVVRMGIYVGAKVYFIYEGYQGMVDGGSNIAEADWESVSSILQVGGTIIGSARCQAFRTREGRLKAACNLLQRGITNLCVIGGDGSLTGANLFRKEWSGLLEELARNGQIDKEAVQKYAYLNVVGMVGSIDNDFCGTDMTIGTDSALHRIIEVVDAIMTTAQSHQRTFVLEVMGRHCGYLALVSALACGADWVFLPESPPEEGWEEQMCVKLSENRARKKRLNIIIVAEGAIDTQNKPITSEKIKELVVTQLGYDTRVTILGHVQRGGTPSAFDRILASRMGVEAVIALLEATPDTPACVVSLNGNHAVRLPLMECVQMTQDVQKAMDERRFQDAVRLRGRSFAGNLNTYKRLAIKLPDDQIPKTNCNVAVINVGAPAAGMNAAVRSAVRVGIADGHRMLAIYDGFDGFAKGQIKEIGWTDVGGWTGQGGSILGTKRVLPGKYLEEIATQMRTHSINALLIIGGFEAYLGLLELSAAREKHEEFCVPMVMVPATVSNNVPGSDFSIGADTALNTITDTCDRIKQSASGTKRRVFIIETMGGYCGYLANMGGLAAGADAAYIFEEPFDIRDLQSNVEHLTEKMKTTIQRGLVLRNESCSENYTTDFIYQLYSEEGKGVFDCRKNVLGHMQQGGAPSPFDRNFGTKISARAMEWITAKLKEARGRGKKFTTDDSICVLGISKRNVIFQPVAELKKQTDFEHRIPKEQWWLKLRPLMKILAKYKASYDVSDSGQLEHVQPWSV
# UniProt Q6P4A8: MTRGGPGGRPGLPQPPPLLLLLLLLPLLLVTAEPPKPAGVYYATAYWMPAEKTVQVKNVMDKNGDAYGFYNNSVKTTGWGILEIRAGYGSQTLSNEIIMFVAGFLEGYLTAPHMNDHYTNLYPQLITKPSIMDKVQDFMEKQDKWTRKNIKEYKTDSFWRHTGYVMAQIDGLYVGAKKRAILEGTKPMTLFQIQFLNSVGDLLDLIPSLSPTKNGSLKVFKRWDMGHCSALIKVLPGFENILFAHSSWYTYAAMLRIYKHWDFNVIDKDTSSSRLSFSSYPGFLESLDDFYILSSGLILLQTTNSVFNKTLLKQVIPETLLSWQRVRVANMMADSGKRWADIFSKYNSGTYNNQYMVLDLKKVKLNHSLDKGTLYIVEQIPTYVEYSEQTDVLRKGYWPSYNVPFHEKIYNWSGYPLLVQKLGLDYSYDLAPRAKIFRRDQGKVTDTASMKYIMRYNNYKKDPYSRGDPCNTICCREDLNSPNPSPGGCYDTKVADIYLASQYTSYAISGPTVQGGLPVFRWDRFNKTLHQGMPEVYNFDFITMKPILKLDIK
# UniProt Q99471, whole entry, looked up: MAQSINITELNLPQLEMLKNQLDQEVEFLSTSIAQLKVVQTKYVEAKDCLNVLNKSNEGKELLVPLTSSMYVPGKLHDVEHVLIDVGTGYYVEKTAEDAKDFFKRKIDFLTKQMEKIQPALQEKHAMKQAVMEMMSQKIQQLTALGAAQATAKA
# UniProt Q9NXJ5: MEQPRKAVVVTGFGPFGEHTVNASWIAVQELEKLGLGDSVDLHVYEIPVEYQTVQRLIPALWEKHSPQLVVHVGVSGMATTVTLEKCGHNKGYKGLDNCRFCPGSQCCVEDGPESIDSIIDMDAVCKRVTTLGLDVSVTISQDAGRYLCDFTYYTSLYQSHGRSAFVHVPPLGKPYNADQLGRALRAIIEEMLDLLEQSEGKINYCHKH
# UniProt Q96G03: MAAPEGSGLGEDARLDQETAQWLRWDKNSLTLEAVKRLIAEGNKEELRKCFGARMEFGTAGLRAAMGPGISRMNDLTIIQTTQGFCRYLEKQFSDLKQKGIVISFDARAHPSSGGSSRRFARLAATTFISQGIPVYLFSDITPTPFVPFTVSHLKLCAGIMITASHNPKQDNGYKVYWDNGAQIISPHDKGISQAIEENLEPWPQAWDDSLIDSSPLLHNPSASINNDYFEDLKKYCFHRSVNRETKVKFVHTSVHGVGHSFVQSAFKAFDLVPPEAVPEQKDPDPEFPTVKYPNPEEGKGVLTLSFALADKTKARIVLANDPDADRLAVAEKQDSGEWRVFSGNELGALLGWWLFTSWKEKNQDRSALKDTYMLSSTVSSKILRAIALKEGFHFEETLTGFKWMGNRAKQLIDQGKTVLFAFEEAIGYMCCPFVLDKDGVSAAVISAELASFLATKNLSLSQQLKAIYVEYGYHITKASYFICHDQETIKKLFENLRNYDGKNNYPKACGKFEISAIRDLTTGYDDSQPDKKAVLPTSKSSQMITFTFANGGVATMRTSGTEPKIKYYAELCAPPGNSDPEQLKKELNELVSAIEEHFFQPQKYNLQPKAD
# UniProt O15067: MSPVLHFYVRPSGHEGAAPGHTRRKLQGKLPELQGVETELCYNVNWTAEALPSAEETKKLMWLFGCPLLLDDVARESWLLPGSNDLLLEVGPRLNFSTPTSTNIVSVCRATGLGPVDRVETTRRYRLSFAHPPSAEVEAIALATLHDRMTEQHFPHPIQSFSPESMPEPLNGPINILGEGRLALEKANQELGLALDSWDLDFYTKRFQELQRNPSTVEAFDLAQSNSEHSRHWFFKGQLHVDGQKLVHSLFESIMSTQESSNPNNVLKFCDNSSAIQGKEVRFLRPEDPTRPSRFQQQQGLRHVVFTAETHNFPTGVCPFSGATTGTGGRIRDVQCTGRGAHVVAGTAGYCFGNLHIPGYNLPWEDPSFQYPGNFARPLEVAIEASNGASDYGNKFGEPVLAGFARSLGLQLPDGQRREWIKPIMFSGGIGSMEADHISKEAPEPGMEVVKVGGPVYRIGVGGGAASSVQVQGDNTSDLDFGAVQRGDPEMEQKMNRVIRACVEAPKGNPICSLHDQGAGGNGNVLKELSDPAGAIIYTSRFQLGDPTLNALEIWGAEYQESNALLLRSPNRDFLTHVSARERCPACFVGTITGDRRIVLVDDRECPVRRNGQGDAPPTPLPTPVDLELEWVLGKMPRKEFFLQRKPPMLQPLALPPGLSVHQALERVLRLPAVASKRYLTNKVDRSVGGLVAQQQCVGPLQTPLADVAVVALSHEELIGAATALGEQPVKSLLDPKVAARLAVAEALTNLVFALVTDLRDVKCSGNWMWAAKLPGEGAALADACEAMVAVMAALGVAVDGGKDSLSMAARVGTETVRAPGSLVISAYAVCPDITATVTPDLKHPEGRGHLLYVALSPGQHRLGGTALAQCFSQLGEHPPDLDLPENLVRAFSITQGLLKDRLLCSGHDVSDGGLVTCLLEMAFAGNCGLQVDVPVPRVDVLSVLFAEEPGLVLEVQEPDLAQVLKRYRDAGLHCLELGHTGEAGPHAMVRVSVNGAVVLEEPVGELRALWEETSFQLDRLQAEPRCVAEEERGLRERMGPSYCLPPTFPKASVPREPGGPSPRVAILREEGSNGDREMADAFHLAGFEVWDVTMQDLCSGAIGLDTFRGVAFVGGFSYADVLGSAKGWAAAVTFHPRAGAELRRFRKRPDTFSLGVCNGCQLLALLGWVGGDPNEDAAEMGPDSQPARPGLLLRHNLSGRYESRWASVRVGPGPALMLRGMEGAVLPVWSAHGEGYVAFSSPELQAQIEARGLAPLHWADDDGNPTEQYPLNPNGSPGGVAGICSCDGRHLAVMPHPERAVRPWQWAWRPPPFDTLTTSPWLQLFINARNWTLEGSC
# UniProt Q8NCC3: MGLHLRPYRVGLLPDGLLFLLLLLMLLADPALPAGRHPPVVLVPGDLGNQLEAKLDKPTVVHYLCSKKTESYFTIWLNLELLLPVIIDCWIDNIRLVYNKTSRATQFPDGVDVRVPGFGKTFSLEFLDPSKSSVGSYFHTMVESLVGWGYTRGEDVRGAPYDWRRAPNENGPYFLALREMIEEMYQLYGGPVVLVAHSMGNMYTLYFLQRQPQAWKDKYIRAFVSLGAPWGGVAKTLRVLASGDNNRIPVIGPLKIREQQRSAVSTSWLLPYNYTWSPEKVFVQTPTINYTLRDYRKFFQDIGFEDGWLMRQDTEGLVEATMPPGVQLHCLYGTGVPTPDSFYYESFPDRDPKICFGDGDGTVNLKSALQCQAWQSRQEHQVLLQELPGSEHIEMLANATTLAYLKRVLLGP
# UniProt P0C869: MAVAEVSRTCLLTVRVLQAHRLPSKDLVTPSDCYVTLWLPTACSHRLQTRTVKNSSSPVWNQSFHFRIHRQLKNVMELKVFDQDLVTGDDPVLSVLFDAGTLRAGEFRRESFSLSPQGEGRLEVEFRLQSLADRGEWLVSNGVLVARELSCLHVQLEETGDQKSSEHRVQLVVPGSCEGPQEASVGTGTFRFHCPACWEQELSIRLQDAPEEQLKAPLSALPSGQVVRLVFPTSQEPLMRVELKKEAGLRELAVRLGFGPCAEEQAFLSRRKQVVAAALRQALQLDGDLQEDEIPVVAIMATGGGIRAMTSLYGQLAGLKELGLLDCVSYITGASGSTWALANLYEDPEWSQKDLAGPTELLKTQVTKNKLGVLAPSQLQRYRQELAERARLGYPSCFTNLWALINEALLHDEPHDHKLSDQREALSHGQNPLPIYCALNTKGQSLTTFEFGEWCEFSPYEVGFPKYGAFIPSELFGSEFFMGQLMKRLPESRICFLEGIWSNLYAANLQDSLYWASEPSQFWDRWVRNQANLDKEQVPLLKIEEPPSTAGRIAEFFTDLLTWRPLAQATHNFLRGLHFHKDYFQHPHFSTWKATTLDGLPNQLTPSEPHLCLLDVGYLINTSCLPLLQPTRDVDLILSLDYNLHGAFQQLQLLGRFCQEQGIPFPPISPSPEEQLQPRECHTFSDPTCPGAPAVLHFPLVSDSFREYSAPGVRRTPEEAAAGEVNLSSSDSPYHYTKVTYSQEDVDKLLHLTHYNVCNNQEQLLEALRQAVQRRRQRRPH
# UniProt O00329: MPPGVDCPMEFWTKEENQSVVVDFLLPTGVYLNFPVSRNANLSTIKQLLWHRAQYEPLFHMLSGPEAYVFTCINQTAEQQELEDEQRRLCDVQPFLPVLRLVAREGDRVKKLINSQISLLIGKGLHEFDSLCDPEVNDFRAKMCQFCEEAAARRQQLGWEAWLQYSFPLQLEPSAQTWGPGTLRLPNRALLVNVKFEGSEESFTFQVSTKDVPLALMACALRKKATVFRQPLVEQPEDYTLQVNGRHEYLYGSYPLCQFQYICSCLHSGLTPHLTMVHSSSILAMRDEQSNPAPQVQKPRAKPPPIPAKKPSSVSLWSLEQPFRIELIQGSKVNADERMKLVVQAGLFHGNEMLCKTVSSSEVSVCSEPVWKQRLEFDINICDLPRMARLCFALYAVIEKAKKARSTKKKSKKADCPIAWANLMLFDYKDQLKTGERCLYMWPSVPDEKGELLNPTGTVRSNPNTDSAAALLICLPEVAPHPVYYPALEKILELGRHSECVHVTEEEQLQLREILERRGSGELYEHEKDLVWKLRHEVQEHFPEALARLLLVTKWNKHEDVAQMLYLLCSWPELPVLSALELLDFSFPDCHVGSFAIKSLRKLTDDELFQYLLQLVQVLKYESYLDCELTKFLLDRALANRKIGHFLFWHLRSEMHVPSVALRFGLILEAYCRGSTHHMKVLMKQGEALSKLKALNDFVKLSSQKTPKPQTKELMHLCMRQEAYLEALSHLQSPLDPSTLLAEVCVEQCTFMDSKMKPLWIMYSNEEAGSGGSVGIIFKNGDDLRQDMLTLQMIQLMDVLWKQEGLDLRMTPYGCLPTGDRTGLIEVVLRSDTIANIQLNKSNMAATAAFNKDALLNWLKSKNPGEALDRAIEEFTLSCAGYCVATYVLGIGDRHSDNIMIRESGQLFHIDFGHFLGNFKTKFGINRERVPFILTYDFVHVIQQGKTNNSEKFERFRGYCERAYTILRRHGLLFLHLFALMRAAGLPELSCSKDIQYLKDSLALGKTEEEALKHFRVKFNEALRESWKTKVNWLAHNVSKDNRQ
# UniProt Q6PCE3: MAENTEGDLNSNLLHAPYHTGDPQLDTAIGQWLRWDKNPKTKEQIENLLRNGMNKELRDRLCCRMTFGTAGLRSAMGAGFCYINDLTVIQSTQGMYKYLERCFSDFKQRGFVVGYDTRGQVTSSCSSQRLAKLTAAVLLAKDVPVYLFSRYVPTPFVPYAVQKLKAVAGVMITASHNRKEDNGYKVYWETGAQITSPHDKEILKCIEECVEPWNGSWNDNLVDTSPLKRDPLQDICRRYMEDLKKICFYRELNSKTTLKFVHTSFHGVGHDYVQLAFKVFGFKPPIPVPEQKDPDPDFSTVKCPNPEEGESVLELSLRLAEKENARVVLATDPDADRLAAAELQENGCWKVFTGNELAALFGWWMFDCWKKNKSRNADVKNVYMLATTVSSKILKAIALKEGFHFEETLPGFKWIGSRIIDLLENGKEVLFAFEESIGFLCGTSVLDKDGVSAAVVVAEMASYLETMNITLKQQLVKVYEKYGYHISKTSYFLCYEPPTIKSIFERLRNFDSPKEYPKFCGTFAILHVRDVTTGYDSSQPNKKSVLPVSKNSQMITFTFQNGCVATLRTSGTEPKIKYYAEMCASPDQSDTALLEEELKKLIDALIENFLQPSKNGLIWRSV
# Some of the results follow.
# Experiments:
# Assay in all cases: log2 fold change, soluble protein after heating vs DMSO (PISA); higher = thermal stabilisation; K562 cells, 10 uM, 30 min; active = over 0.2 and 3.5 SD of the protein, either way, in both replicates (recomputed)
# [1] = compound: NC(=O)Nc1cc(-c2cccc(F)c2)sc1C(=O)N[C@H]1CCCNC1
# Procedure, shortened: (§1)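 K562 cells at 2×10^6 cells/mL were treated with 10 μM compound for 30 min. Aliquots were heated for 3 min across 48°C-58°C, pooled, and extracted in PBS with 0.5% NP-40 at 4°C; soluble protein was the supernatant after 21,000xg for 90 min. Soluble protein was quantified by TMTpro 16plex LC-MS/MS with channel sums equalised, and reported as log2 fold change in thermal stability against DMSO controls, with values from duplicates.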
# [2] = compound: NC(=O)c1cnc(N[C@@H]2CCCC[C@@H]2N)nc1Nc1cccc(-n2nccn2)c1
# Procedure, shortened: as §1
# [3] = compound: NC1(c2ccc(-c3nc4ccn5c(=O)[nH]nc5c4cc3-c3ccccc3)cc2)CCC1
# Procedure, shortened: as §1
# [4] = compound: NCC(=O)Nc1ccc(-n2nc(C(F)(F)F)cc2-c2ccc3c(ccc4ccccc43)c2)cc1
# Procedure, shortened: as §1
# [5] = compound: Nc1ccccc1NC(=O)c1ccc(CNC(=O)OCc2cccnc2)cc1 [entinostat]
# Procedure, shortened: as §1
# [6] = compound: O=C(CCCCCCC(=O)Nc1ccccc1)NO [vorinostat]
# Procedure, shortened: as §1
# [7] = compound: O=C(CCCCCCNC(=O)c1cnc(N(c2ccccc2)c2ccccc2Cl)nc1)NO [citarinostat]
# Procedure, shortened: as §1
# [8] = compound: O=C(O)c1ccc2c(c1)nc(Nc1cccc(Cl)c1)c1ccncc12 [silmitasertib]
# Procedure, shortened: as §1
# [9] = compound: O=C1NC(=O)C(c2cnc3ccccn23)=C1c1cn2c3c(cc(F)cc13)CN(C(=O)N1CCCCC1)CC2
# Procedure, shortened: as §1
# [10] = compound: c1cc(OCCN2CCCCC2)cc(-c2n[nH]c3ccc(-c4nnc[nH]4)cc23)c1
# Procedure, shortened: as §1
Target,log2 fold change [1],log2 fold change [2],log2 fold change [3],log2 fold change [4],log2 fold change [5],log2 fold change [6],log2 fold change [7],log2 fold change [8],log2 fold change [9],log2 fold change [10]
PFKP (UniProt Q01813),inactive: 0.004,inactive: 0.018,inactive: -0.013,inactive: -0.004,inactive: -0.024,inactive: 0.024,inactive: -0.031,inactive: -0.074,inactive: -0.054,inactive: -0.006
PLBD1 (UniProt Q6P4A8),inactive: 0.008,inactive: -0.061,inactive: -0.076,inactive: -0.039,inactive: 0.008,inactive: -0.038,inactive: -0.018,inactive: 0.003,inactive: -0.027,inactive: 0.409
PFN1 (UniProt I3L3D5),inactive: -0.225,inactive: -0.3,inactive: -0.026,–,inactive: -0.137,inactive: -0.204,inactive: -0.164,inactive: 0.105,inactive: -0.286,inactive: -0.135
PFDN5 (UniProt Q99471),inactive: 0.082,inactive: 0.03,inactive: 0.032,inactive: 0.04,inactive: 0.086,inactive: 0.045,inactive: 0.06,inactive: -0.039,inactive: -0.101,inactive: 0
PGPEP1 (UniProt Q9NXJ5),inactive: 0.017,inactive: -0.048,inactive: -0.275,inactive: 0.2,inactive: -0.029,–,inactive: -0.12,inactive: 0.115,inactive: 0.067,inactive: -0.263
PHACTR2 isoform 4 (UniProt O75167),inactive: -0.097,inactive: -0.126,inactive: 0.064,inactive: -0.03,inactive: 0.008,inactive: -0.118,inactive: -0.027,inactive: 0.03,inactive: 0.01,inactive: -0.095
PGM2 (UniProt Q96G03),inactive: 0.019,inactive: 0.023,inactive: -0.02,inactive: 0.043,inactive: 0.002,inactive: -0.006,inactive: 0.047,inactive: -0.012,inactive: -0.027,inactive: 0
PITPNA (UniProt Q00169),inactive: 0.022,inactive: 0.005,inactive: 0.012,inactive: -0.054,inactive: -0.027,inactive: -0.024,inactive: 0.049,inactive: -0.009,inactive: -0.011,inactive: 0.017
PIP5K1A (UniProt Q99755),inactive: 0.079,inactive: 0.006,inactive: 0.06,inactive: -0.063,inactive: 0.082,inactive: 0.051,inactive: 0.057,inactive: -0.077,inactive: 0.182,inactive: -0.252
PFAS (UniProt O15067),inactive: 0.06,inactive: -0.075,inactive: -0.012,inactive: -0.054,inactive: 0.134,inactive: 0.042,inactive: 0.049,inactive: -0.119,inactive: -0.052,inactive: 0.142
PLA2G15 (UniProt Q8NCC3),inactive: 0.06,inactive: -0.042,inactive: -0.023,inactive: 0.001,inactive: 0.056,inactive: 0.073,active: 0.279,inactive: 0.076,inactive: -0.074,inactive: -0.008
PEX5 isoform 4 (UniProt P50542),inactive: 0.019,inactive: 0.002,–,inactive: 0.041,inactive: 0,–,–,–,inactive: 0.163,–
PLA2G4B isoform 6 (UniProt P0C869),inactive: 0.056,inactive: -0.088,inactive: 0.093,inactive: 0.015,inactive: 0.037,inactive: 0.06,–,inactive: 0.026,–,–
PIK3CD (UniProt O00329),inactive: 0.086,inactive: 0.014,–,inactive: -0.047,inactive: -0.008,–,inactive: -0.285,–,inactive: -0.092,inactive: 0.143
PGM2L1 (UniProt Q6PCE3),inactive: -0.003,inactive: 0,inactive: -0.071,inactive: 0.004,inactive: -0.029,inactive: 0.002,inactive: -0.012,inactive: 0.011,inactive: -0.045,inactive: -0.001
PHF10 (UniProt Q8WUB8),inactive: 0.025,inactive: -0.222,–,inactive: 0.013,inactive: -0.002,inactive: 0.121,inactive: 0.032,–,inactive: -0.093,inactive: -0.118
PIK3CG (UniProt P48736),inactive: 0.13,inactive: -0.819,–,–,inactive: -0.049,–,inactive: 0.072,–,inactive: 0.079,inactive: -0.202

# Single records, as listed above. Order of values: log2 fold change [1]	log2 fold change [2]	log2 fold change [3]	log2 fold change [4]	log2 fold change [5]	log2 fold change [6]	log2 fold change [7]	log2 fold change [8]	log2 fold change [9]	log2 fold change [10]
# PFAS (UniProt O15067) as listed: inactive: 0.06	inactive: -0.075	inactive: -0.012	inactive: -0.054	inactive: 0.134	inactive: 0.042	inactive: 0.049	inactive: -0.119	inactive: -0.052	inactive: 0.142
# PGPEP1 (UniProt Q9NXJ5) as listed: inactive: 0.017	inactive: -0.048	inactive: -0.275	inactive: 0.2	inactive: -0.029	–	inactive: -0.12	inactive: 0.115	inactive: 0.067	inactive: -0.263
